Values quoted from earlier work, collected in patent US6787149B1 (El Khoury and Stein Ltd., priority 2000, dated 2004).

Test system: patients who had undergone failed back operations
Settings: 1-3 mg on the back; claimed by the authors, questioned by the patent; cited from earlier work

CN1CC[C@]23c4c5ccc(O)c4O[C@H]2[C@@H](O)C=C[C@H]3[C@H]1C5.O=S(=O)(O)O [Morphine, morphine sulfate]
Morphine in the systemic circulation: absence of morphine in the systemic circulation
